{"source": "PubChem BioAssay AID445", "about": "(National Center for Advancing Translational Sciences (NCATS), 2006)", "assay": "IkB Signaling", "conditions": "ABC-DLBCL IkBa-CBG/CBR dual luciferase ratio (green luciferase fused to IkBa over red control in OCI-Ly3 lymphoma cells), 4 h", "in_short": "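In this assay, an IκBα–CBG68 fusion accumulates when IKK-driven degradation is blocked; native CBR normalizes for cell number. OCI-Ly3 cells were treated 4 h with compound and doxycycline, then green and red light read after Chroma-Glo addition.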", "key": {"[1]": {"conditions": "measured here: control luc red channel unless noted"}}, "note": "The list shows a part of the results. The main result of the screen is listed elsewhere. These columns were measured beside it and carry no call. The list favours compounds with an active or inconclusive main result. The note in brackets gives the kind of curve behind each potency; many fits are weak."}
{"molecule": "COc1cccc(Cn2c(=O)cc(C)c3c(C)nn(C)c32)c1", "values": [{"measurement": "AC50", "setting": "[1]", "result": "0.158 µM [rising, full curve]"}]}
{"molecule": "COc1ccc(S(=O)Cc2ccc(C(=O)N3CCN(c4cccc(C)c4C)CC3)o2)cc1", "note": "(stereo unspecified)", "values": [{"measurement": "AC50", "setting": "[1]", "result": "15.8 µM [falling, single point]"}]}
{"molecule": "Cc1c(Cl)cccc1NC(=O)Cn1c(=O)n(Cc2ccco2)c(=O)c2sc3ccccc3c21", "values": [{"measurement": "AC50", "setting": "[1]", "result": "0.0158 µM [rising, full curve, poor fit]"}]}
{"molecule": "O=C(Nc1ccc(C(=O)OCc2cc(=O)n3c4c(sc3n2)CCCC4)cc1)c1ccc(F)cc1", "values": [{"measurement": "AC50", "setting": "[1]", "result": "10 µM [falling, partial curve]"}]}
{"molecule": "O=C(CCCCn1c(=O)c2ccccc2n(CC(=O)Nc2cccc(C(F)(F)F)c2)c1=O)NCc1ccc2c(c1)OCO2", "values": [{"measurement": "AC50", "setting": "[1]", "result": "7.94 µM [falling, full curve]"}]}
{"molecule": "CCOC(=O)c1ccc(Nc2nn3c(=O)c4ccccc4nc3s2)cc1", "values": [{"measurement": "AC50", "setting": "[1]", "result": "0.158 µM [falling, full curve]"}]}
{"molecule": "COc1ccc(OC)c(NC(=O)c2ccc3c(Cl)c4c(nc3c2)CCCC4)c1", "values": [{"measurement": "AC50", "setting": "[1]", "result": "2.51 µM [falling, full curve]"}]}
{"molecule": "CCCCN(C)C(=O)Cn1cnc2sc(C)c(S(=O)(=O)N3CCC(C)CC3)c2c1=O", "values": [{"measurement": "AC50", "setting": "[1]", "result": "0.0251 µM [falling, full curve, poor fit]"}]}
{"molecule": "COc1ccccc1-c1nc2s/c(=C\\c3cccs3)c(=O)n2n1", "values": [{"measurement": "AC50", "setting": "[1]", "result": "2 µM [falling, partial curve]"}]}
{"molecule": "Cc1ccc(S(=O)(=O)/C=C\\C#N)cc1", "values": [{"measurement": "AC50", "setting": "[1]", "result": "2.51 µM [falling, full curve]"}]}
{"molecule": "CCN(CC)c1ccc(C2Nc3ccccc3-c3cc(C)nn32)cc1", "note": "(stereo unspecified)", "values": [{"measurement": "AC50", "setting": "[1]", "result": "12.6 µM [falling, partial curve]"}]}
{"molecule": "Nc1nn(-c2ccccc2)nc1C(=O)OCc1c(F)cccc1Cl", "values": [{"measurement": "AC50", "setting": "[1]", "result": "0.398 µM [rising, full curve]"}]}
{"molecule": "COc1cc(Nc2nc(SCC(=O)c3ccc(Cl)c(Cl)c3)nc3ccccc23)cc(OC)c1", "values": [{"measurement": "AC50", "setting": "[1]", "result": "0.794 µM [falling, full curve]"}]}
{"molecule": "Cc1cc(C(=O)NCc2ccccc2)c2c(C)nn(-c3cccc(F)c3)c2n1", "values": [{"measurement": "AC50", "setting": "[1]", "result": "0.251 µM [falling, single point]"}]}
{"molecule": "O=C(Cn1c(=O)c2cccn2c2ccccc21)NCc1ccccc1F", "values": [{"measurement": "AC50", "setting": "[1]", "result": "20 µM [falling, partial curve]"}]}
{"molecule": "Cc1cccc(N(CC(=O)NCCSCc2ccccc2)S(=O)(=O)c2ccccc2)c1C", "values": [{"measurement": "AC50", "setting": "[1]", "result": "12.6 µM [falling, partial curve]"}]}
{"molecule": "Cc1ccc(-c2c(C)c(-c3ccc(F)cc3)nc(N)c2C#N)o1", "values": [{"measurement": "AC50", "setting": "[1]", "result": "12.6 µM [falling, partial curve]"}]}
{"molecule": "Cc1ccc(C(=O)c2cn(Cc3ccccc3)c3nc(C)ccc3c2=O)cc1", "values": [{"measurement": "AC50", "setting": "[1]", "result": "39.8 µM [falling, single point]"}]}
{"molecule": "Cc1nc(N2CCCC2)c2c(C(=O)N3CCN(c4cc(Cl)ccc4C)CC3)c(C)oc2n1", "values": [{"measurement": "AC50", "setting": "[1]", "result": "31.6 µM [falling, single point]"}]}
{"molecule": "CCn1c(=O)c(=O)n(CC)c2cc(S(=O)(=O)Nc3ccc(C)cc3)ccc21", "values": [{"measurement": "AC50", "setting": "[1]", "result": "15.8 µM [falling, partial curve]"}]}
{"molecule": "Cc1cccc(-n2c(=O)c3c4c(sc3n3c(C)nnc23)CCCC4)c1", "values": [{"measurement": "AC50", "setting": "[1]", "result": "1 µM [rising, full curve]"}]}
{"molecule": "COc1ccc(NC(=O)c2oc3ccccc3c2NC(=O)C2CCCCC2)c(OC)c1", "values": [{"measurement": "AC50", "setting": "[1]", "result": "1.58 µM [falling, full curve, poor fit]"}]}
{"molecule": "Clc1ccc(-n2c(Cc3ccccc3)nnc2SCc2nc(-c3cccs3)no2)cc1", "values": [{"measurement": "AC50", "setting": "[1]", "result": "20 µM [falling, partial curve]"}]}
{"molecule": "CCCn1c(=O)c2ccccc2n2c(SCc3c(C(=O)OCC)oc4ccccc34)nnc12", "values": [{"measurement": "AC50", "setting": "[1]", "result": "25.1 µM [falling, partial curve]"}]}
{"molecule": "CCCCN(C)C(=O)c1ccc2c(c1)N(Cc1cccc(F)c1)C(=O)c1ccccc1S2", "values": [{"measurement": "AC50", "setting": "[1]", "result": "25.1 µM [falling, single point]"}]}
{"molecule": "Oc1cccc(Nc2nc(NCC3CCCO3)c3ccccc3n2)c1", "note": "(stereo unspecified)", "values": [{"measurement": "AC50", "setting": "measured here: IkB-luc green channel", "result": "10 µM [falling, partial curve]"}, {"measurement": "AC50", "setting": "measured here: control luc red channel", "result": "12.6 µM [falling, partial curve]"}]}
{"molecule": "Cc1cc(=O)n2[nH]c(-c3ccc(Cl)cc3)cc2n1", "values": [{"measurement": "AC50", "setting": "[1]", "result": "15.8 µM [falling, single point]"}]}
{"molecule": "Cc1cc(C)c(/C=C/c2onc(C)c2S(=O)(=O)N2CCC(C(=O)NCCc3ccccc3)CC2)c(C)c1", "values": [{"measurement": "AC50", "setting": "[1]", "result": "7.94 µM [falling, full curve, poor fit]"}]}
{"molecule": "Cc1c(CCC(=O)NCc2ccc(F)cc2)c(=O)oc2cc(O)ccc12", "values": [{"measurement": "AC50", "setting": "[1]", "result": "25.1 µM [falling, partial curve]"}]}
{"molecule": "CCCN(CCC)C(=O)c1c[nH]c2ccc(S(=O)(=O)N(C)c3ccc(OCC)cc3)cc2c1=O", "values": [{"measurement": "AC50", "setting": "[1]", "result": "39.8 µM [falling, single point]"}]}
{"molecule": "O=C(CN1CCN(c2ccccn2)CC1)Nc1ccc(Oc2ccccc2)cc1", "values": [{"measurement": "AC50", "setting": "[1]", "result": "15.8 µM [falling, partial curve]"}]}
{"molecule": "Cc1ccccc1OCC(=O)Nc1ccc(C(=O)OCc2cc(=O)n3c(C)csc3n2)cc1", "values": [{"measurement": "AC50", "setting": "[1]", "result": "0.631 µM [rising, full curve, poor fit]"}]}
{"molecule": "Cc1cc(C)cc(NC(=O)CSc2nnc(Cc3cccn3C)n2-c2ccc(F)cc2)c1", "values": [{"measurement": "AC50", "setting": "[1]", "result": "12.6 µM [falling, partial curve]"}]}
{"molecule": "COc1ccc(CNC(=O)CSCc2cnn(-c3ccccc3)c2-n2cccc2)cc1OC", "values": [{"measurement": "AC50", "setting": "[1]", "result": "10 µM [falling, partial curve]"}]}
{"molecule": "Cc1cccc(N2CCN(C(=O)c3cc4c(=O)[nH]c5ccc(C)cc5c4s3)CC2C)c1", "note": "(stereo unspecified)", "values": [{"measurement": "AC50", "setting": "[1]", "result": "0.00501 µM [falling, full curve, poor fit]"}]}
{"molecule": "CC(=O)N1CCN(c2nc3c(F)cc(F)cc3s2)CC1", "values": [{"measurement": "AC50", "setting": "[1]", "result": "10 µM [rising, partial curve]"}]}
{"molecule": "COc1ccc(C(C(=O)Nc2ccc(C(C)C)cc2)N(C)C(=O)Cc2cccs2)cc1", "note": "(stereo unspecified)", "values": [{"measurement": "AC50", "setting": "[1]", "result": "6.31 µM [falling, partial curve]"}]}
{"molecule": "Cc1ccccc1Nc1nnc(-c2ccc(C)c(S(=O)(=O)N3CCN(C)CC3)c2)c2ccccc12", "values": [{"measurement": "AC50", "setting": "[1]", "result": "39.8 µM [falling, partial curve]"}]}
{"molecule": "Cc1cccc(Nc2nc(NCc3ccco3)nc(N3CCOCC3)n2)c1", "values": [{"measurement": "AC50", "setting": "[1]", "result": "15.8 µM [falling, partial curve]"}]}
{"molecule": "CN(C)c1ccc(-c2nc3ccccc3n2C)cc1", "values": [{"measurement": "AC50", "setting": "[1]", "result": "7.94 µM [falling, partial curve]"}]}
